Laboratory results published in patent US20260069693A1, “UROLITHINS AND T-CELL MEDIATED IMMUNE RESPONSE” (priority 2022, published 2026).

Test system: T cells
Experiment: qPCR and RNA sequencing of stimulated T cells
Assay type: cell-based, mice
Settings: RNA sequencing, 48 hours DMSO or UA (50 μM)
Experimental: To explore the downstream events linking mitophagy to TSCM formation, the inventors performed RNA sequencing to globally assess differential gene expression in T cells exposed for 48 hours to either DMSO or UA in vitro. […] Indeed, when the inventors applied ICG001 to pharmacologically block TCF-1, UA-induced TSCM formation in vitro was abrogated (FIG. 5D-E).
In vitro activated T cells following the indicated treatments were collected followed by RNA isolation using the RNeasy kit (Qiagen). RNA quality and concentration were determined by Nanodrop spectrophotometer. Complementary DNA was generated using SuperScript II reverse transcriptase (ThermoFisher). A total reaction volume of 13 μl RNA was incubated with oligoDT and DNTP Mix (1 μl each) for 5 min at 65° C. The samples were allowed to cool down for 5 min on ice, and to each 4 μl of 5× First strand buffer, 1 μl DTT, 1 μl RNAseOUT™ and 1 μl Superscript II reverse transcriptase were added. Samples were incubated for 1 h at 42° C. Synthesized cDNA was 1:5 diluted in nuclease free water before being processed into gene expression analysis with the 96 wells StepOne real time PCR Machine (Applied biosystems) using 2× FastStart Universal SYBR Green Master Mix (Roche). CT values were normalized to the gene indicated in the respective figures. The following primers were used: […]
For RNA isolation of in vitro stimulated T cells, RNeasy mini kit (Qiagen) was used. 200 ng of total RNA was used to prepare the library for RNA sequencing. Coexpression patterns of genes associated with effector and memory cell fate, immune checkpoints, effector molecules, and adhesion/homing were chosen based on the literature as depicted in the main text. Data underwent z-score normalization for display as described previously (Xiong et al., 2020). Upstream regulator analysis was performed using Ingenuity pathway analysis software, using a cut-off log 2fold change of 1 and a p value of […].

O=c1oc2cc(O)ccc2c2ccc(O)cc12 [UA, Urolithin A]
differentially expressed genes downregulated: 413 | differentially expressed genes significantly upregulated: 765 | total number of differentially expressed genes: 1178
